Reference: paper PMC8822707
No constants are given. Whether binding was seen depends on the method and setting. In cells and extracts the contact can be indirect. Some results given as binding are weak or reduced against the parent protein; the word gives no strength.

Molecular target: T1, Smad4 (human (endogenous in LoVo)), Q13485
T1 chain: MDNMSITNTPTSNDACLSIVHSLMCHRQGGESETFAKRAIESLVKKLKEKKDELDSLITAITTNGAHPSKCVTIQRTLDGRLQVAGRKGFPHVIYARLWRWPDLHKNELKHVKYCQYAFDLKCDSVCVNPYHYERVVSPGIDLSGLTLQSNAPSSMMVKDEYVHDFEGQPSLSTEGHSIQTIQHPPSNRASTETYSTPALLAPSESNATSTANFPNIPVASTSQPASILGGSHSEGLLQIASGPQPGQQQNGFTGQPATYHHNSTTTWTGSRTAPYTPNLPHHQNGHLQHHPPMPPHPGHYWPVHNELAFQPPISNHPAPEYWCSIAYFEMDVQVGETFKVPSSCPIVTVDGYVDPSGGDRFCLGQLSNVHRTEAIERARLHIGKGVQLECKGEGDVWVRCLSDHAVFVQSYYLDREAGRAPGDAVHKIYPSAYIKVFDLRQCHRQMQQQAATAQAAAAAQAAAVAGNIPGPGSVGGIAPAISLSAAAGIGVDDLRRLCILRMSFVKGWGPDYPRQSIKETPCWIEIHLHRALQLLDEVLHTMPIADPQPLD
Assay: co-IP; Smad4 antibody (1 μg) on protein A/G beads, incubated with LoVo cell lysates (800 μg protein); lysis buffer 50 mM Tris-HCl pH 7.5, 150 mM NaCl, 0.5% NP-40; wash buffer with 0.1% NP-40; western blot of Smad2 and Smad3; cells with circPTEN1 knockdown or reintroduction, treated with 5 ng/mL TGF-β1 for 1 h
Settings: remark: other sources report otherwise

B1: Smad2, Q15796 1-467 (protein)
chain: MSSILPFTPPVVKRLLGWKKSAGGSGGAGGGEQNGQEEKWCEKAVKSLVKKLKKTGRLDELEKAITTQNCNTKCVTIPSTCSEIWGLSTPNTIDQWDTTGLYSFSEQTRSLDGRLQVSHRKGLPHVIYCRLWRWPDLHSHHELKAIENCEYAFNLKKDEVCVNPYHYQRVETPVLPPVLVPRHTEILTELPPLDDYTHSIPENTNFPAGIEPQSNYIPETPPPGYISEDGETSDQQLNQSMDTGSPAELSPTTLSPVNHSLDLQPVTYSEPAFWCSIAYYELNQRVGETFHASQPSLTVDGFTDPSNSERFCLGLLSNVNRNATVEMTRRHIGRGVRLYYIGGEVFAECLSDSAIFVQSPNCNQRYGWHPATVCKIPPGCNLKIFNNQEFAALLAQSVNQGFEAVYQLTRMCTIRMSFVKGWGAEYRRQTVTSTPCWIELHLNGPLQWLDKVLTQMGSPSVRCSSMS
binding: binds

B2: Smad3, P84022 1-425 (protein)
chain: MSSILPFTPPIVKRLLGWKKGEQNGQEEKWCEKAVKSLVKKLKKTGQLDELEKAITTQNVNTKCITIPRSLDGRLQVSHRKGLPHVIYCRLWRWPDLHSHHELRAMELCEFAFNMKKDEVCVNPYHYQRVETPVLPPVLVPRHTEIPAEFPPLDDYSHSIPENTNFPAGIEPQSNIPETPPPGYLSEDGETSDHQMNHSMDAGSPNLSPNPMSPAHNNLDLQPVTYCEPAFWCSISYYELNQRVGETFHASQPSMTVDGFTDPSNSERFCLGLLSNVNRNAAVELTRRHIGRGVRLYYIGGEVFAECLSDSAIFVQSPNCNQRYGWHPATVCKIPPGCNLKIFNNQEFAALLAQSVNQGFEAVYQLTRMCTIRMSFVKGWGAEYRRQTVTSTPCWIELHLNGPLQWLDKVLTQMGSPSIRCSSVS
binding: binds
